Measured values published in article PMC6836472.
No constants are given. Whether binding was seen depends on the method and setting. Binding seen in cells or lysates may run through a third protein. Some binding calls cover weakened binding; strength is not graded here.

Sequences of proteins named here, by UniProt entry; tags and fusion partners are left off.
UniProt O14744: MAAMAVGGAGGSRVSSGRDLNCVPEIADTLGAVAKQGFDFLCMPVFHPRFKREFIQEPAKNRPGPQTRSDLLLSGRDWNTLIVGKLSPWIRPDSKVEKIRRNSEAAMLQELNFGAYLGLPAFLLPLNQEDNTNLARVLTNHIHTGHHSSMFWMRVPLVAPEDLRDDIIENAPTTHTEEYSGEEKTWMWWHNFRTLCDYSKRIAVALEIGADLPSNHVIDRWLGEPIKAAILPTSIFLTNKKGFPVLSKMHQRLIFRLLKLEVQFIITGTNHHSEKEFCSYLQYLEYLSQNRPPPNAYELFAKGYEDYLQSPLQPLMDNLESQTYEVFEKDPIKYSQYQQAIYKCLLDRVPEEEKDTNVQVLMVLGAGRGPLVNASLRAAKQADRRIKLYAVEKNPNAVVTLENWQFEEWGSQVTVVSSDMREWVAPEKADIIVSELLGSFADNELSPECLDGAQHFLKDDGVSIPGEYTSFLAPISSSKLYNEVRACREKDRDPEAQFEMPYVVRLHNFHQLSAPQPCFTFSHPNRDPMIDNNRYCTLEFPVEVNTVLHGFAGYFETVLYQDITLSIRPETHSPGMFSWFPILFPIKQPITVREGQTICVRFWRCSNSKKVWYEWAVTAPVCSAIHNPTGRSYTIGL
UniProt P01106: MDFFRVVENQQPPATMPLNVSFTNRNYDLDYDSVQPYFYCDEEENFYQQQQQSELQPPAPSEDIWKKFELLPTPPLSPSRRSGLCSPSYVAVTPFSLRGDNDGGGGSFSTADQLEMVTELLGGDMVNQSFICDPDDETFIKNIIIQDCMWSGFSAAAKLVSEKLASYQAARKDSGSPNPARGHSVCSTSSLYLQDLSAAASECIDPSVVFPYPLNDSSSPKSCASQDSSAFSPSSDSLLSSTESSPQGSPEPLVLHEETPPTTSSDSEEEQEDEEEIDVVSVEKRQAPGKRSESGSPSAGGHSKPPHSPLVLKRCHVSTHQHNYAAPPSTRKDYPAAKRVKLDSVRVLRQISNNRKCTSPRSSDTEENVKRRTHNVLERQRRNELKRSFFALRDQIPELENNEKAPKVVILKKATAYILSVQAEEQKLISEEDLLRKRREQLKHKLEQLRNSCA

What was measured:
[1] = biological target: protein arginine methyltransferase 5 (human (endogenous in HD-MB03)) (UniProt O14744); experiment: co-IP; 500 ug HD-MB03 protein lysate precleared with protein A-Sepharose; 8 ug MYC or PRMT5 antibody (control IgG) at 4 °C overnight; captured on protein A-Sepharose, washed with PBS; western blotting for the other protein
[2] = biological target: MYC (v-myc avian myelocytomatosis viral oncogene homolog) (human (endogenous in HD-MB03)) (UniProt P01106); experiment: as above

| Substance | binding [1] | binding [2] |
| --- | --- | --- |
| MYC (v-myc avian myelocytomatosis viral oncogene homolog) (from UniProt P01106 1-454) | binds |  |
| protein arginine methyltransferase 5 (from UniProt O14744 1-637) (enzyme) |  | binds |
